{"source": "PubChem BioAssay AID504808 (Drosophila RNAi Screening Center, 2011)", "purpose": "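Fly genes required to hold E2F transcription in check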 (primary screen)", "cells": "Drosophila S2 cells", "knock-down reagent": "long dsRNA against Drosophila genes", "detection": "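Dual luciferase plate measurements; E2F-specific signal taken as firefly over Renilla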", "scale": "E2F firefly: higher = more E2F reporter activity; Renilla normaliser: higher = more normaliser reporter signal", "call rule": "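Called active if the normalised E2F reporter went up by over 50%; the cutoff is arbitrary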", "note": "In all, the deposit lists about 21,000 reagents; shown is an unselected part of those with a known target gene and a result. In the full data, 18 (0.084%) are marked active. 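Raw counts without plate normalisation, one of two replicates; the ratio scores behind the calls were not deposited.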 A number with no mark means an inactive call. The numbers tell different reagents against one gene apart. Not given: the amount of reagent, the time to read-out."}
The opening 2 records, ahead of the listing:
{"target gene": "CG11029", "dsRNA no.": 1, "E2F firefly, rep 1": 1.28e5, "Renilla normaliser, rep 1": 5119}
{"target gene": "CG33937 (retired record)", "dsRNA no.": 1, "E2F firefly, rep 1": 1.36e5, "Renilla normaliser, rep 1": 6348}

The list itself, from the first entry:
{"target gene": "CG11029", "dsRNA no.": 1, "E2F firefly, rep 1": 1.28e5, "Renilla normaliser, rep 1": 5119}
{"target gene": "CG33937 (retired record)", "dsRNA no.": 1, "E2F firefly, rep 1": 1.36e5, "Renilla normaliser, rep 1": 6348}
{"target gene": "Ho", "dsRNA no.": 1, "E2F firefly, rep 1": 78231, "Renilla normaliser, rep 1": 3686}
{"target gene": "Smyd4-2", "dsRNA no.": 1, "E2F firefly, rep 1": 1.23e5, "Renilla normaliser, rep 1": 5739}
{"target gene": "CG14186", "dsRNA no.": 1, "E2F firefly, rep 1": 93052, "Renilla normaliser, rep 1": 3644}
{"target gene": "CG34320 (retired record)", "dsRNA no.": 1, "E2F firefly, rep 1": 77507, "Renilla normaliser, rep 1": 2714}
{"target gene": "CR11023", "dsRNA no.": 1, "E2F firefly, rep 1": 1.39e5, "Renilla normaliser, rep 1": 5551}
{"target gene": "CG45105", "dsRNA no.": 1, "E2F firefly, rep 1": 96784, "Renilla normaliser, rep 1": 4951}
{"target gene": "CG45105", "dsRNA no.": 2, "E2F firefly, rep 1": 72859, "Renilla normaliser, rep 1": 6048}
{"target gene": "CG15370", "dsRNA no.": 1, "E2F firefly, rep 1": 1.18e5, "Renilla normaliser, rep 1": 6645}
{"target gene": "CHOp24", "dsRNA no.": 1, "E2F firefly, rep 1": 1969, "Renilla normaliser, rep 1": 976}
{"target gene": "CG31251", "dsRNA no.": 1, "E2F firefly, rep 1": 1.40e5, "Renilla normaliser, rep 1": 8446}
